Tested on: HLA molecules of primary tumor samples
Assay: Identification of tumor associated peptides presented on the cell surface (HLA immune precipitation, LC-MS)
Set-up: species or system human
Details: for Peptide Presentation on cancer entities: entities on which the peptide was presented, CLL = chronic lymphocytic leukemia, AML = acute myeloid leukemia, CML = Chronic myeloid leukemia; for Peptide Presentation on tumor types: tumor entities on which the peptide was found presented (Table 8b)

Substance	Peptide Presentation on cancer entities	Peptide Presentation on tumor types
1 (LTEGHSGNYY; listed as Homo sapiens) [compound 1]	CLL	NHL
2 (TMIRIFHRY; listed as Homo sapiens) [compound 2]	AML	–
3 (YINPAKLTPY; listed as Homo sapiens) [compound 3]	CLL	GBC, MEL, NHL, NSCLCother, UBC
4 (ALDQNKMHY; listed as Homo sapiens) [compound 4]	AML	–
5 (GTDVLSTRY; listed as Homo sapiens) [compound 5]	AML, CML	BRCA, CRC, GBC, GC, GEJC, MEL, NHL, NSCLCadeno, NSCLCother, NSCLCsquam, OSCAR, PACA, PRCA, RCC, SCLC, UBC, UEC
6 (VTEGVAQTSFY; listed as Homo sapiens) [compound 6]	CLL	BRCA, CCC, GBC, GBM, GC, GEJC, HCC, HNSCC, MEL, NHL, NSCLCadeno, NSCLCother, NSCLCsquam, OC, OSCAR, PACA, PRCA, RCC, SCLC, UEC
7 (FMDSESFYY; listed as Homo sapiens) [compound 7]	CLL	BRCA, GBC, GC, HNSCC, MEL, NHL, NSCLCadeno, NSCLCsquam
8 (STDSAGSSY; listed as Homo sapiens) [compound 8]	CLL	NHL
9 (YSHPQYSSY; listed as Homo sapiens) [compound 9]	CLL	–
10 (YSDIGHLL; listed as Homo sapiens) [compound 10]	CLL	BRCA, CCC, GC, NHL, NSCLCadeno, NSCLCother, NSCLCsquam, OC, PACA, RCC, UEC
11 (AAADHHSLY; listed as Homo sapiens) [compound 11]	AML	GC, SCLC
12 (ATDIVDSQY; listed as Homo sapiens) [compound 12]	CLL	–
13 (ITDIHIKY; listed as Homo sapiens) [compound 13]	CLL	BRCA, CRC, GBC, GBM, GC, GEJC, HNSCC, MEL, NHL, NSCLCadeno, NSCLCother, NSCLCsquam, OSCAR, PACA, PRCA, RCC, SCLC, UBC
14 (TFDLTVVSY; listed as Homo sapiens) [compound 14]	CLL	BRCA, CCC, CRC, GBC, GBM, GC, HCC, HNSCC, MEL, NHL, NSCLCadeno, NSCLCother, NSCLCsquam, OC, OSCAR, PACA, PRCA, RCC, SCLC, UBC, UEC
15 (SVADIRNAY; listed as Homo sapiens) [compound 15]	CLL	BRCA, CCC, CRC, GBC, GBM, GC, HCC, HNSCC, MEL, NHL, NSCLCadeno, NSCLCother, NSCLCsquam, OC, OSCAR, PACA, PRCA, RCC, SCLC, UBC, UEC
16 (WIGDKSFEY; listed as Homo sapiens) [compound 16]	AML	BRCA, CRC, GBC, GBM, GC, HCC, MEL, NSCLCadeno, NSCLCsquam, OSCAR, PACA, PRCA, RCC
17 (KAYNRVIFV; listed as Homo sapiens) [compound 17]	CLL	BRCA, CCC, CRC, GBC, GBM, GEJC, HCC, HNSCC, NHL, NSCLCadeno, NSCLCother, NSCLCsquam, OC, OSCAR, PACA, SCLC, UBC, UEC
18: peptide found in AGPAT5 (gene looked up) (YLLPSVVLL; listed as Homo sapiens) [compound 18]	CLL	BRCA, CCC, CRC, GBC, GBM, GC, GEJC, HCC, HNSCC, MEL, NHL, NSCLCadeno, NSCLCother, NSCLCsquam, OC, OSCAR, PACA, PRCA, RCC, SCLC, UBC, UEC
19 (SLFEGIYTI; listed as Homo sapiens) [compound 19]	AML	–
20 (FSLEDLVRI; listed as Homo sapiens) [compound 20]	CLL	NHL
21 (FLFDKLLLI; listed as Homo sapiens) [compound 21]	CLL	BRCA, CCC, CRC, GBC, GBM, GC, GEJC, HCC, HNSCC, MEL, NHL, NSCLCadeno, NSCLCother, NSCLCsquam, OC, OSCAR, PACA, PRCA, RCC, SCLC, UBC, UEC
22 (ILHAQTLKI; listed as Homo sapiens) [compound 22]	CLL	HCC, NHL, NSCLCsquam, PRCA
23 (FAFSGVLRA; listed as Homo sapiens) [compound 23]	AML	BRCA, CRC, GBC, GEJC, HCC, HNSCC, NHL, NSCLCadeno, NSCLCother, NSCLCsquam, OC, OSCAR, PRCA, SCLC, UBC, UEC
24 (KLGPVAVSI; listed as Homo sapiens) [compound 24]	CLL	HCC, HNSCC, NHL, NSCLCsquam, OSCAR, PRCA
25 (YLNEKSLQL; listed as Homo sapiens) [compound 25]	AML, CML	BRCA, CCC, CRC, GEJC, HCC, MEL, NHL, NSCLCadeno, NSCLCother, NSCLCsquam, OC, PRCA, RCC, SCLC, UBC, UEC
26 (SLYVQQLKI; listed as Homo sapiens) [compound 26]	CLL	HNSCC, NHL, OC, PRCA
27 (RLIAKEMNI; listed as Homo sapiens) [compound 27]	CLL	HCC, NHL
